PubChem BioAssay AID504764 – Drosophila RNAi Screening Center – 2011

Purpose: 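Genome-wide screen for regulators of Notch-driven gene expression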 (primary screen)
System: Drosophila Kc167 cells
Reagents: long dsRNA against Drosophila genes
Timing: about 5 days (4 days dsRNA, then 24 h after transfection)
Challenge: transfection of constitutively active membrane-tethered Notch lacking the extracellular domain, read 24 h later
Measured: 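Firefly luciferase from an E(spl)m3 reporter with active Notch, plus control-promoter and uninduced reporter wells for normalisation; unnormalised counts, duplicate wells a and b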
Direction: induced reporter light, run 1, well a and induced reporter light, run 1, well b: higher = more light from the Notch target reporter with active Notch; control promoter light, run 1, well a and control promoter light, run 1, well b: higher = more light from the viral control promoter (cell number, transfection, viability); uninduced reporter light, run 1, well a: higher = more light from the Notch target reporter without active Notch
Hit rule: 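Hit if the duplicate-averaged log2 ratio of induced to control-promoter light gives a plate-wise z beyond ±2, or induced to uninduced beyond ±1.8; weak-control or discordant-duplicate wells dropped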
Meaning of the calls: active = modifier hit (raised or lowered Notch signal); inactive = not a hit
The screen tested about 22,000 reagents; this is a random part of those that have a named target and a result. Of all reagents, 403 (1.9%) are marked active. 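Unnormalised raw counts per well; ratio z-scores behind the hit calls and whether each hit raises or lowers signal are not deposited.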 Unmarked entries are inactive. The numbers tell different reagents against one gene apart. A plus sign joins genes that one reagent is predicted to hit. Reagent sequences are not shown. Not stated in the record: the amount of reagent.

Uxt (GeneID 34893) scored induced reporter light, run 1, well a = 1.26e5; induced reporter light, run 1, well b = 1.16e5; control promoter light, run 1, well a = 1.29e5; control promoter light, run 1, well b = 1.58e5; uninduced reporter light, run 1, well a = 9850.
Klp54D (GeneID 47216) showed induced reporter light, run 1, well a = 1.20e5; induced reporter light, run 1, well b = 86505; control promoter light, run 1, well a = 1.04e5; control promoter light, run 1, well b = 1.30e5; uninduced reporter light, run 1, well a = 13405.
With knock-down of slo (GeneID 42940) the results were induced reporter light, run 1, well a = 63595; induced reporter light, run 1, well b = 79395; control promoter light, run 1, well a = 65570; control promoter light, run 1, well b = 66275; uninduced reporter light, run 1, well a = 7045.
lbe (GeneID 42542) showed induced reporter light, run 1, well a = 2.04e5; induced reporter light, run 1, well b = 1.46e5; control promoter light, run 1, well a = 2.04e5; control promoter light, run 1, well b = 2.01e5; uninduced reporter light, run 1, well a = 11232.
For Bhmt (GeneID 35153) the deposit lists induced reporter light, run 1, well a = 58505; induced reporter light, run 1, well b = 37310; control promoter light, run 1, well a = 44360; control promoter light, run 1, well b = 62700; uninduced reporter light, run 1, well a = 3135.
For CG13313 (GeneID 39022), the values are induced reporter light, run 1, well a = 1.70e5; induced reporter light, run 1, well b = 1.54e5; control promoter light, run 1, well a = 1.63e5; control promoter light, run 1, well b = 1.63e5; uninduced reporter light, run 1, well a = 10265.
After knock-down of fus (GeneID 44095) #1, the screen gave induced reporter light, run 1, well a = 2.16e5; induced reporter light, run 1, well b = 1.96e5; control promoter light, run 1, well a = 2.84e5; control promoter light, run 1, well b = 2.39e5; uninduced reporter light, run 1, well a = 19565.
fus (GeneID 44095) #2 gave induced reporter light, run 1, well a = 1.10e5; induced reporter light, run 1, well b = 98810; control promoter light, run 1, well a = 2.03e5; control promoter light, run 1, well b = 2.00e5; uninduced reporter light, run 1, well a = 9765.
CG31097 (GeneID 43058) scored induced reporter light, run 1, well a = 1.20e5; induced reporter light, run 1, well b = 1.55e5; control promoter light, run 1, well a = 1.67e5; control promoter light, run 1, well b = 1.63e5; uninduced reporter light, run 1, well a = 12630.
For CG7970 (GeneID 38205) the deposit lists induced reporter light, run 1, well a = 1.20e5; induced reporter light, run 1, well b = 1.21e5; control promoter light, run 1, well a = 1.97e5; control promoter light, run 1, well b = 1.63e5; uninduced reporter light, run 1, well a = 8855.
Knock-down of igl (GeneID 36681) gave: induced reporter light, run 1, well a = 57875; induced reporter light, run 1, well b = 1.20e5; control promoter light, run 1, well a = 2.01e5; control promoter light, run 1, well b = 3.15e5; uninduced reporter light, run 1, well a = 10660.
After knock-down of Skp2 + CG1103, the record shows induced reporter light, run 1, well a = 1.29e5; induced reporter light, run 1, well b = 1.37e5; control promoter light, run 1, well a = 1.08e5; control promoter light, run 1, well b = 89085; uninduced reporter light, run 1, well a = 9030.

Not a retest: entries from further up.
CG13313 (GeneID 39022) | induced reporter light, run 1, well a = 1.70e5; induced reporter light, run 1, well b = 1.54e5; control promoter light, run 1, well a = 1.63e5; control promoter light, run 1, well b = 1.63e5; uninduced reporter light, run 1, well a = 10265
fus (GeneID 44095) #1 | induced reporter light, run 1, well a = 2.16e5; induced reporter light, run 1, well b = 1.96e5; control promoter light, run 1, well a = 2.84e5; control promoter light, run 1, well b = 2.39e5; uninduced reporter light, run 1, well a = 19565
